{
  "source": "the supplement of paper PMC5949888",
  "note": "Most values lie at the floor of the assay. Slopes are relative: functional sequences can read slightly below zero.",
  "data": [
    {"system": "Saccharomyces cerevisiae PS128 hsf1 delta, HSF1(1-493) fusion", "test": "growth estimate (transactivation domain function in HSF1 fusion, heat-shock survival) (a.u. (slope of normalised read count over time)); higher = stronger growth at 37°C, i.e. more transactivation activity", "settings": "library: random library", "values": [
      {"substance": "PVRS", "growth estimate": "< -0.25"},
      {"substance": "PVRTIQAPRL", "growth estimate": "< -0.25"},
      {"substance": "PVSGERECTCYRLSGASAPS", "growth estimate": "< -0.25"},
      {"substance": "PVSPLL", "growth estimate": "< -0.25"},
      {"substance": "PVSRCWLSGSDGRPLLNNVQ", "growth estimate": "< -0.25"},
      {"substance": "PVT", "growth estimate": "< -0.25"},
      {"substance": "PVTVSAGPY", "growth estimate": "< -0.25"},
      {"substance": "PVV", "growth estimate": "< -0.25"},
      {"substance": "PVVATSRTGRLVTWPNKPVL", "growth estimate": "< -0.25"},
      {"substance": "PVVHSEMKWGCGRAACLSVS", "growth estimate": "< -0.25"},
      {"substance": "PVVSSRRTQSLHHSDGCCED", "growth estimate": "< -0.25"},
      {"substance": "PVVSSYRGRRSAISQIVSTR", "growth estimate": "< -0.25"},
      {"substance": "PVWLPTIVAFGCTIGPKPRH", "growth estimate": "< -0.25"},
      {"substance": "PVYHGSLRVVGKKMSGRLCH", "growth estimate": "< -0.25"},
      {"substance": "PWCT", "growth estimate": "< -0.25"},
      {"substance": "PWFGLLYCQLG", "growth estimate": "< -0.25"},
      {"substance": "PWGIS", "growth estimate": "< -0.25"},
      {"substance": "PWLHVQTAV", "growth estimate": "< -0.25"},
      {"substance": "PWPYVSVYPADIGFTPAEC", "growth estimate": "< -0.25"},
      {"substance": "PWSGVQLQPARLLFNKPAMA", "growth estimate": "< -0.25"},
      {"substance": "PWSSVTFSVGREQTSADTRW", "growth estimate": "< -0.25"},
      {"substance": "PWVVAD", "growth estimate": "< -0.25"},
      {"substance": "PYDM", "growth estimate": "< -0.25"},
      {"substance": "PYG", "growth estimate": "< -0.25"},
      {"substance": "PYGESL", "growth estimate": "< -0.25"},
      {"substance": "PYHGSPRLRPL", "growth estimate": "< -0.25"},
      {"substance": "PYLPNV", "growth estimate": "< -0.25"},
      {"substance": "PYPL", "growth estimate": "< -0.25"},
      {"substance": "PYRTDMIVYFRLLK", "growth estimate": "< -0.25"},
      {"substance": "PYRTYVVCDWLSRFESIQAS", "growth estimate": "< -0.25"},
      {"substance": "PYTCMTIASQSKGGPSLSLG", "growth estimate": "< -0.25"},
      {"substance": "PYTPPSVTCGQRTPCQRPSP", "growth estimate": "< -0.25"},
      {"substance": "PYVGRTEGYTPNRDIDPTRR", "growth estimate": "< -0.25"},
      {"substance": "PYVLLK", "growth estimate": "< -0.25"},
      {"substance": "PYYGLPVVAVLDGGEWEFWV", "growth estimate": "< -0.25"},
      {"substance": "QAEFIVVTEEGSLGGRGTGA", "growth estimate": "< -0.25"},
      {"substance": "QAEQPRAKLVANRA", "growth estimate": "< -0.25"},
      {"substance": "QAKGTPLGVDWRWK", "growth estimate": "< -0.25"},
      {"substance": "QALGAL", "growth estimate": "< -0.25"},
      {"substance": "QALPVR", "growth estimate": "< -0.25"},
      {"substance": "QALSAIPSSPHGDLWCTASS", "growth estimate": "< -0.25"},
      {"substance": "QANGLVFGADIGWQLDSSVG", "growth estimate": "< -0.25"},
      {"substance": "QAPFPMRPHTRGLRSSNGRY", "growth estimate": "< -0.25"},
      {"substance": "QARGGKSVNSSLY", "growth estimate": "< -0.25"},
      {"substance": "QARRQ", "growth estimate": "< -0.25"},
      {"substance": "QASG", "growth estimate": "< -0.25"},
      {"substance": "QASGLNRANKLQGHRHRAGL", "growth estimate": -0.155},
      {"substance": "QASIC", "growth estimate": "< -0.25"},
      {"substance": "QAVGIDLGIYCSTGAVAVIH", "growth estimate": "< -0.25"},
      {"substance": "QAVRQATFGAGEGSKAKCSW", "growth estimate": "< -0.25"},
      {"substance": "QAWAGAEQGC", "growth estimate": "< -0.25"},
      {"substance": "QCAESGDRRQIRFRCRAQMS", "growth estimate": "< -0.25"},
      {"substance": "QCDC", "growth estimate": "< -0.25"},
      {"substance": "QCHFGICAGIDQLGVHA", "growth estimate": "< -0.25"},
      {"substance": "QCPWGINYEFVHFGHGGCAK", "growth estimate": "< -0.25"},
      {"substance": "QCSMFLMDALQIAILYPAED", "growth estimate": "< -0.25"},
      {"substance": "QCVIEMQRGGLVHIALPTSP", "growth estimate": "< -0.25"},
      {"substance": "QDICACAKHAPE", "growth estimate": "< -0.25"},
      {"substance": "QDLKGKAGRNVWLSGIPARE", "growth estimate": "< -0.25"},
      {"substance": "QDPMLW", "growth estimate": "< -0.25"},
      {"substance": "QDPRTRVWHTGATWGGCQRH", "growth estimate": "< -0.25"},
      {"substance": "QDRGRSARS", "growth estimate": "< -0.25"},
      {"substance": "QDSLHSTLLRSAKLKCCFGD", "growth estimate": "< -0.25"},
      {"substance": "QDVACEL", "growth estimate": "< -0.25"},
      {"substance": "QEALEPLQSTPDHWRKFKKL", "growth estimate": "< -0.25"},
      {"substance": "QEAP", "growth estimate": "< -0.25"},
      {"substance": "QECDTS", "growth estimate": "< -0.25"},
      {"substance": "QECSGPQVGSYQDGEYT", "growth estimate": "< -0.25"},
      {"substance": "QEGFSRRFGWDAALKLVEYM", "growth estimate": "< -0.25"},
      {"substance": "QEKGVLTKVSEWHGGAKVHQ", "growth estimate": "< -0.25"},
      {"substance": "QELSFTLD", "growth estimate": "< -0.25"},
      {"substance": "QEMHS", "growth estimate": "< -0.25"},
      {"substance": "QEMYILPGGPGPPAGLKIRG", "growth estimate": "< -0.25"},
      {"substance": "QENISCIRVNAGKVARLRQV", "growth estimate": "< -0.25"},
      {"substance": "QESNILTRLHQLCFSDKTQI", "growth estimate": "< -0.253"},
      {"substance": "QESVPGHEKSGSDDMAVTCR", "growth estimate": "< -0.25"},
      {"substance": "QEVPSRLKQYYYTVVKGWAR", "growth estimate": "< -0.25"},
      {"substance": "QEYRPISMCVLW", "growth estimate": "< -0.25"},
      {"substance": "QEYRPTYLDTLLIGT", "growth estimate": "< -0.25"},
      {"substance": "QFASATEVTTIYT", "growth estimate": "< -0.25"},
      {"substance": "QFHYTA", "growth estimate": "< -0.25"},
      {"substance": "QFIEFTIITHRNLNDSTNIC", "growth estimate": "< -0.25"},
      {"substance": "QFLMRTHCKLYGSNDMRSQH", "growth estimate": "< -0.25"},
      {"substance": "QFPDKKVTAGTHLVIPQPGG", "growth estimate": "< -0.25"},
      {"substance": "QFRGAGVETRAHLAYELHV", "growth estimate": "< -0.25"},
      {"substance": "QFRGCKIYLV", "growth estimate": "< -0.25"},
      {"substance": "QFRQRLRQCTTAACRIG", "growth estimate": "< -0.25"},
      {"substance": "QFSGSRLV", "growth estimate": "< -0.25"},
      {"substance": "QFSS", "growth estimate": "< -0.25"},
      {"substance": "QFTVARCRCHRLKSSGCCTA", "growth estimate": "< -0.25"},
      {"substance": "QFV", "growth estimate": "< -0.25"},
      {"substance": "QFVAWIRVFPFRAG", "growth estimate": "< -0.25"},
      {"substance": "QFVLFWRPRKVGQVSCRLCT", "growth estimate": "< -0.25"},
      {"substance": "QFVPDPVKSTAGVRAKAICV", "growth estimate": "< -0.25"},
      {"substance": "QFVRPNCLQRL", "growth estimate": "< -0.25"},
      {"substance": "QFVYGDWTRCAWTAGDKRIR", "growth estimate": "< -0.25"},
      {"substance": "QGANAA", "growth estimate": "< -0.25"},
      {"substance": "QGCYQDIRISV", "growth estimate": "< -0.25"},
      {"substance": "QGDLRVTHDRWGFVWCWADA", "growth estimate": -0.23},
      {"substance": "QGDSLR", "growth estimate": "< -0.25"}
    ]}
  ]
}
